This note sets out measurements from US20260256723A1, “THIOL-BASED COMPOUNDS AND COMPOSITIONS AND USES THEREOF” (CASE WESTERN RESERVE UNIVERSITY, priority 2022, published 2026).

Structures are written as SMILES. Values joined by “and” are separate entries in the source; they are usually repeats but may differ in a detail not shown here. Equal values may be shown once. Read-outs that look alike come from different tables or passages of the source. Some results come without the dose or concentration used.

The data set concerns unanesthetized rats receiving continuous intravenous infusion of fentanyl. Also on record: species or system Sprague Dawley rat. The following applies: rat, in vivo.

On to `CC(=O)N[C@@H](CS)C(=O)O` [L-NAC, N-acetyl-L-cysteine], for which the Body temperature was 37.8 ± 0.1 °C and 37.7 ± 0.1 °C and 37.4 ± 0.1 °C; the “Body temperature, Delta changes from Pre” value was 0.23 ± 0.03 °C and 0.33 ± 0.04 °C and 0.34 ± 0.04 °C and 0.32 ± 0.06 °C and 0.28 ± 0.06 °C and 0.29 ± 0.05 °C. Under “iv”, the Body temperature is 37.7 ± 0.1 °C and 37.6 ± 0.1 °C; the “Body temperature, Delta changes from Pre” value was 0.14 ± 0.04 °C and 0.28 ± 0.07 °C.
